PubChem BioAssay AID1259308 | NCATS | 2017

Assay: 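Knock-downs that increase output of a recombinant reporter protein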 (primary screen)
System: human HEK293 embryonic kidney cells stably expressing firefly luciferase (HEK-CMV-Luc2-Hygro)
Reagent: single siRNA against human genes, 0.8 pmol siRNA per well
Duration: 72 h
Measured: 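Reporter luminescence and viable-cell signal on separate replicate plates, given as percent of non-targeting control and median/MAD z-scores, plus per-cell luciferase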
Direction: total luciferase, z-score and total luciferase, % of control: higher = more reporter protein produced; luciferase per cell, z-score: higher = more reporter output per viable cell; viable cells, % of control: higher = more viable cells
Active means: 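An siRNA counts as active if its total luciferase robust z-score exceeds 3; genes with two or more such siRNAs out of three were retested with fresh siRNAs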
Meaning of the calls: active = raised luciferase; inactive = no rise
The deposit covers about 59,000 reagents; this is a random part of them. In the full data, about 1,510 (2.6%) got an active call. 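Calls use total luciferase alone and ignore viability, so some active siRNAs may act by altering cell number.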 The numbers tell different reagents against one gene apart. No sequences are given here.

total luciferase, z-score	total luciferase, % of control	luciferase per cell, z-score	viable cells, % of control	outcome	Target gene	siRNA no.
-1.67	48.8	-2.25	98.6	inactive	NR1H4	1
-0.783	66.3	-0.355	81.4	inactive	NR1H4	2
-0.516	71.6	-1.27	112	inactive	NR1H4	3
-3.15	19.3	-2.94	46.7	inactive	RPL26P32	1
-1.69	48.4	-1.21	74.2	inactive	RPL26P32	2
-2.75	27.1	-2.81	63.5	inactive	RPL26P32	3
0.328	88.4	0.00637	98.6	inactive	HPSE2	1
-0.561	70.7	-0.0959	81.1	inactive	HPSE2	2
0.682	95.4	0.477	94.1	inactive	HPSE2	3
-0.908	63.8	-0.852	89.3	inactive	SUPT4H1	1
-1.24	57.3	-0.812	79.2	inactive	SUPT4H1	2
0.306	88	0.0787	96.3	inactive	SUPT4H1	3
-0.364	74.7	-0.139	86.5	inactive	OR8A1	1
0.515	92.1	-0.291	111	inactive	OR8A1	2
0.75	96.8	1.24	78	inactive	OR8A1	3
3.57	153	3.02	77.1	active	KRT82	1
-1.92	43.6	-1.91	80.6	inactive	KRT82	2
-0.549	71	-1.37	114	inactive	KRT82	3
1.51	112	1.75	78.9	inactive	TMEM150B	1
-0.496	72	-0.113	82.9	inactive	TMEM150B	2
-0.596	70	-0.61	91.9	inactive	TMEM150B	3
0.172	85.3	-0.339	104	inactive	CDC123	1
-1.46	52.9	-0.671	70.6	inactive	CDC123	2
-1.04	61.3	-1.45	100	inactive	CDC123	3
-0.557	70.8	-0.62	93.2	inactive	CLIP4	1
-0.408	73.8	-0.63	97.3	inactive	CLIP4	2
0.154	85	-0.384	105	inactive	CLIP4	3
-0.107	79.7	0.0867	87.1	inactive	TMEM234	1
2.56	133	1.55	98.5	inactive	TMEM234	2
0.901	99.8	1.06	84.4	inactive	TMEM234	3
-0.244	77	-0.0805	87.9	inactive	DYNC1LI1	1
-0.231	77.3	-0.532	99.4	inactive	DYNC1LI1	2
0.352	88.9	-0.253	106	inactive	DYNC1LI1	3
0.903	99.9	0.651	94	inactive	SPON1	1
1.92	120	0.956	104	inactive	SPON1	2
1.02	102	0.335	104	inactive	SPON1	3
0.832	98.4	1.75	69.4	inactive	HS1BP3	1
-1.22	57.6	-0.27	69.1	inactive	HS1BP3	2
0.158	85	-0.0353	95.9	inactive	HS1BP3	3
-0.296	76	-0.43	95.1	inactive	LDHC	1
-1.12	59.5	-1.73	105	inactive	LDHC	2
0.194	85.7	0.774	78.1	inactive	LDHC	3
1.54	113	1.32	89	inactive	OGA	1
-0.989	62.2	-1.41	101	inactive	OGA	2
-0.105	79.8	0.869	70.9	inactive	OGA	3
-0.377	74.4	-0.0869	85.1	inactive	STMND1	1
-0.0768	80.4	0.0409	88.8	inactive	STMND1	2
0.265	87.2	0.628	82.6	inactive	STMND1	3
1.56	113	1.37	87.9	inactive	USP42	1
-0.412	73.7	-0.589	96.2	inactive	USP42	2
1.96	121	1.58	89.2	inactive	USP42	3
0.521	92.2	0.182	98.3	inactive	RUBCNL	1
-0.752	66.9	-0.851	93.6	inactive	RUBCNL	2
-0.19	78.1	-0.605	102	inactive	RUBCNL	3
-0.331	75.3	-0.399	93.5	inactive	CIRBP	1
0.687	95.5	-0.0733	109	inactive	CIRBP	2
0.356	89	0.033	98.6	inactive	CIRBP	3
-0.688	68.2	-0.491	86.7	inactive	TRAPPC12	1
0.758	97	1.01	83	inactive	TRAPPC12	2
-0.475	72.4	-0.676	96.7	inactive	TRAPPC12	3
-1.75	47.1	-0.767	64.4	inactive	REXO4	1
-0.549	71	-0.569	92.1	inactive	REXO4	2
0.934	100	1.41	77.4	inactive	REXO4	3
2.31	128	0.761	117	inactive	DHODH	1
-1.5	52.1	-0.382	64.3	inactive	DHODH	2
0.143	84.7	-0.638	112	inactive	DHODH	3
0.745	96.7	1.65	69.9	inactive	PLA2R1	1
0.238	86.6	0.303	89.4	inactive	PLA2R1	2
-0.53	71.3	-0.867	100	inactive	PLA2R1	3
0.396	89.8	-0.0767	102	inactive	CHSY3	1
-0.0614	80.7	-0.48	102	inactive	CHSY3	2
3.05	143	2.49	82.8	active	CHSY3	3
-1.67	48.7	-1.58	82.5	inactive	ABCA16P	1
-0.373	74.5	-0.104	85.5	inactive	ABCA16P	2
0.384	89.5	0.254	93.6	inactive	ABCA16P	3

10 entries already listed, sorted by “total luciferase, z-score”, highest first.
total luciferase, z-score	total luciferase, % of control	luciferase per cell, z-score	viable cells, % of control	outcome	Target gene	siRNA no.
2.31	128	0.761	117	inactive	DHODH	1
0.934	100	1.41	77.4	inactive	REXO4	3
0.758	97	1.01	83	inactive	TRAPPC12	2
0.745	96.7	1.65	69.9	inactive	PLA2R1	1
0.238	86.6	0.303	89.4	inactive	PLA2R1	2
0.143	84.7	-0.638	112	inactive	DHODH	3
-0.475	72.4	-0.676	96.7	inactive	TRAPPC12	3
-0.549	71	-0.569	92.1	inactive	REXO4	2
-1.5	52.1	-0.382	64.3	inactive	DHODH	2
-1.75	47.1	-0.767	64.4	inactive	REXO4	1
